Article PMC10873344
Results are given in words; binding and its absence hold for the method and conditions named. In cells and extracts the contact can be indirect. Some binding calls cover weakened binding; strength is not graded here. Values belong to the molecule of their own block, whether it stands above or below them.

Chains of the proteins cited; added tags and fusions are not shown. Lines headed by an entry give the natural chain unless they say otherwise; changes in a name come on top. A line that says so, or that is headed by a name, gives the form on record, which may keep a tag or linker. Residues count along the entry.
UniProt Q9Z2G6, residues 22-790: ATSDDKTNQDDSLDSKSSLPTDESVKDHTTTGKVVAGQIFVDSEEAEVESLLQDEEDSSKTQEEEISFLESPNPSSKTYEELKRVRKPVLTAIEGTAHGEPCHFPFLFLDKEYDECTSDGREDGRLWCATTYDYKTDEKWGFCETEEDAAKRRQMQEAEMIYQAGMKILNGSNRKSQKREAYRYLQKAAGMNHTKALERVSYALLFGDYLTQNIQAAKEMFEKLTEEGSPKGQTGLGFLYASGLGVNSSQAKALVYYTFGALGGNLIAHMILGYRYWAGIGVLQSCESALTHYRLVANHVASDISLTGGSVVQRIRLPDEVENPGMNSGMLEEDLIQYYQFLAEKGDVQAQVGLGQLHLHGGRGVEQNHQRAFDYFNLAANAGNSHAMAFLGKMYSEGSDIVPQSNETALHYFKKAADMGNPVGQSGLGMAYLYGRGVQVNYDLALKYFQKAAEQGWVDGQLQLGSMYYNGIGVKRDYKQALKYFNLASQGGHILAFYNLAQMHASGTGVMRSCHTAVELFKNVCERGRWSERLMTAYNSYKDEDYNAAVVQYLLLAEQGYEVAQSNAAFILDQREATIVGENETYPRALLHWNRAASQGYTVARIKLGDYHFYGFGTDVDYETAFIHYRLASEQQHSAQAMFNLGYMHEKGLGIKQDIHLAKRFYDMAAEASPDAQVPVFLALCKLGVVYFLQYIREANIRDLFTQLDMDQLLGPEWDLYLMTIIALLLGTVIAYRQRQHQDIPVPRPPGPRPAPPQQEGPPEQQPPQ
human HRD1 (WT)-FLAG (Q86TM6, form named): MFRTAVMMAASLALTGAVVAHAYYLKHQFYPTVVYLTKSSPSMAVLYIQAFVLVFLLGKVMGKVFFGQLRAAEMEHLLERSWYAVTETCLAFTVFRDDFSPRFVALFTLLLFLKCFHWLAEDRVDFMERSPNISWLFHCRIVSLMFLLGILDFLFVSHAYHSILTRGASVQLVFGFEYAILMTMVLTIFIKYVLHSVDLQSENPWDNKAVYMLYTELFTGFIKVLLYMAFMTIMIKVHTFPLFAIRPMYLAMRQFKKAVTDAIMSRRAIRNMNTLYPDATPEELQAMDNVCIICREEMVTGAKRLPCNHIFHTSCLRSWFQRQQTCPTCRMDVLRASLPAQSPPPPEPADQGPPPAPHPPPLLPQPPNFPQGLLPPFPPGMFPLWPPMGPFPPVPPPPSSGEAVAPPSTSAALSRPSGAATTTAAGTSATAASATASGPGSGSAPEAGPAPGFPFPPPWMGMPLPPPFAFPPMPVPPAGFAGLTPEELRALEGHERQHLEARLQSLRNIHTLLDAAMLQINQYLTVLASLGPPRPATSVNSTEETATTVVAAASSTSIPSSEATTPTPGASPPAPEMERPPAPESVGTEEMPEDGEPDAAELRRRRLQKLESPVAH
human HRD1 Y30A-FLAG (Q86TM6, form named): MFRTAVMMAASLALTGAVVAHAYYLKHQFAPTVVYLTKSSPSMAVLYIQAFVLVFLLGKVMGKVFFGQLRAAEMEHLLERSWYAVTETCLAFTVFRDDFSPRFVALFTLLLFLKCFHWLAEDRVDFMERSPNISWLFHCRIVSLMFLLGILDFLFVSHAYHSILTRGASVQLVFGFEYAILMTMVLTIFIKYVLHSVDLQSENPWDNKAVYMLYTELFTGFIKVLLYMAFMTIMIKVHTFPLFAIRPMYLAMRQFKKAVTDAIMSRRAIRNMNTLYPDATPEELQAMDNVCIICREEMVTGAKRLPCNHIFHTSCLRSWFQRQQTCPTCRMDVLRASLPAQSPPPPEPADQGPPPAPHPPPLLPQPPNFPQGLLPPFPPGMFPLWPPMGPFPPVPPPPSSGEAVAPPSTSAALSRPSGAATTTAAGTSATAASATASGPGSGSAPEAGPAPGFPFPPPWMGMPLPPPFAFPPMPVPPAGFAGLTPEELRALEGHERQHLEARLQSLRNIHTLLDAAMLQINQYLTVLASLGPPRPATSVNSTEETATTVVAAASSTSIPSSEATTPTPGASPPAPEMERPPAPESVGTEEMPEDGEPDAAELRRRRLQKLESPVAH
human HRD1 Y30F-FLAG (Q86TM6, form named): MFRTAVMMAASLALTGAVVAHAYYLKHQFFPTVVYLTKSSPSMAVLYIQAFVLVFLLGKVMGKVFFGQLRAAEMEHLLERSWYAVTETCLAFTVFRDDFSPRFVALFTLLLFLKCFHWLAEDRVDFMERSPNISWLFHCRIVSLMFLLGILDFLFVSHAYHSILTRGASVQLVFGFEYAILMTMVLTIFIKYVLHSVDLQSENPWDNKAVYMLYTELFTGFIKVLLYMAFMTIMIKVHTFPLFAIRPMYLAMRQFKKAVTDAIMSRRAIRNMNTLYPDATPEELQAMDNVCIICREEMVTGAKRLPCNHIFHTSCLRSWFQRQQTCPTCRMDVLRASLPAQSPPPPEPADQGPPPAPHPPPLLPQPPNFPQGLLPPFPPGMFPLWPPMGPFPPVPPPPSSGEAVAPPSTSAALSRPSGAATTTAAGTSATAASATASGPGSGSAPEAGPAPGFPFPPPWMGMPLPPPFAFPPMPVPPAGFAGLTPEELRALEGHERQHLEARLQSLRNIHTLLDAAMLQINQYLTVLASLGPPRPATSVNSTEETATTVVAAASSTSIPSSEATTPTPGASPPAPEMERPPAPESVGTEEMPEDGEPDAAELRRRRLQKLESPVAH
human HRD1 Y30K-FLAG (Q86TM6, form named): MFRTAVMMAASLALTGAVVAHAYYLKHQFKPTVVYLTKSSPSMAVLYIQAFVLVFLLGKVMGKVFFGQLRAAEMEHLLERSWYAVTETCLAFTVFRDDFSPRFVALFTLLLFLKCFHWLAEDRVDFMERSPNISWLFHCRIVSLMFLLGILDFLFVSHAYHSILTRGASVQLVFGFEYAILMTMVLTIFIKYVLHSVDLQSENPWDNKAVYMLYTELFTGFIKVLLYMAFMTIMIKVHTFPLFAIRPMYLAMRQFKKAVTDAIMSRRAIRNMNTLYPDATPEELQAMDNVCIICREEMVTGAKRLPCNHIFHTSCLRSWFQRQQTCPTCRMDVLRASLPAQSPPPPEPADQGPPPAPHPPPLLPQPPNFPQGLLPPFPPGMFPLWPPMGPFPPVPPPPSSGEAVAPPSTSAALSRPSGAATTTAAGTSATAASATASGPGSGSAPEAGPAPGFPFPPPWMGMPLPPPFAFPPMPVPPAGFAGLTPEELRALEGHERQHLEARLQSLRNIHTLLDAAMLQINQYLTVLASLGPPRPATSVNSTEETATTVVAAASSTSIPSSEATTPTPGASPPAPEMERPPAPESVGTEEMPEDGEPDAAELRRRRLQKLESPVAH
human HRD1 Y30D-FLAG (Q86TM6, form named): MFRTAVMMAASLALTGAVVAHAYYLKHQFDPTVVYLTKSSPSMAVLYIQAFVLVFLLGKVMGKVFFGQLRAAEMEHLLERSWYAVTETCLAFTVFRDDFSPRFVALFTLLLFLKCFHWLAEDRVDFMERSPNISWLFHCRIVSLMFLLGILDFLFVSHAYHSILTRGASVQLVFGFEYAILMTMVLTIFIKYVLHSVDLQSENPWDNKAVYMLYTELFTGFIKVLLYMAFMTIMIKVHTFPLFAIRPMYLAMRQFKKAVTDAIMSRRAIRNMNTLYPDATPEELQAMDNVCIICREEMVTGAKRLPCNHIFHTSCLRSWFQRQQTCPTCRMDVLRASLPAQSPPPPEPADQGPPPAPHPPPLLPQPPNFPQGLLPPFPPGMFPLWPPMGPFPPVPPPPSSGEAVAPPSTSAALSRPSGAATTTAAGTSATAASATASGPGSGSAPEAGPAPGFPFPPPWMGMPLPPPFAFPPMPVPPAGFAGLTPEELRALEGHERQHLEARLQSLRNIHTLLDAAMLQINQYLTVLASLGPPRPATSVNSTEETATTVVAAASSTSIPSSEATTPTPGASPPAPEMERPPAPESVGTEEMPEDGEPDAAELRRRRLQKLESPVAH
UniProt Q9UBV2, residues 22-794: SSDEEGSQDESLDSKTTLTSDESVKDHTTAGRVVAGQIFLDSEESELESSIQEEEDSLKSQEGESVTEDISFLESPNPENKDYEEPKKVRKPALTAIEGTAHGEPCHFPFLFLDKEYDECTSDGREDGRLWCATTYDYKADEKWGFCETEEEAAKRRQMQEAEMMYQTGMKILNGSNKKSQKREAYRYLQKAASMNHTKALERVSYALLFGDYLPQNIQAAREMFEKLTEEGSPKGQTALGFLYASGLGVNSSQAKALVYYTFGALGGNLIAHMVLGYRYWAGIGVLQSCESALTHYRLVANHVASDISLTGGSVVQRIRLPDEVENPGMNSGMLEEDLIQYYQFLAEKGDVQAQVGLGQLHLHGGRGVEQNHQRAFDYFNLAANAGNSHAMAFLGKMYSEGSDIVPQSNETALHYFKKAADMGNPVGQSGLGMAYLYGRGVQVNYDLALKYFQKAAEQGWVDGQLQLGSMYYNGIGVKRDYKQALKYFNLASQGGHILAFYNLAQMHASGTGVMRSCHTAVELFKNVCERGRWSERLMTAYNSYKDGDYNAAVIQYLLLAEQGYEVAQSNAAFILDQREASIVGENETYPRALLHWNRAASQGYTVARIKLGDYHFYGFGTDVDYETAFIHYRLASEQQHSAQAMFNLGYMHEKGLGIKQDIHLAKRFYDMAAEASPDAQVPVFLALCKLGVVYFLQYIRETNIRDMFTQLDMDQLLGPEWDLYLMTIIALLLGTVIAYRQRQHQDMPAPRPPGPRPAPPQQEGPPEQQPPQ
UniProt Q9DBY1: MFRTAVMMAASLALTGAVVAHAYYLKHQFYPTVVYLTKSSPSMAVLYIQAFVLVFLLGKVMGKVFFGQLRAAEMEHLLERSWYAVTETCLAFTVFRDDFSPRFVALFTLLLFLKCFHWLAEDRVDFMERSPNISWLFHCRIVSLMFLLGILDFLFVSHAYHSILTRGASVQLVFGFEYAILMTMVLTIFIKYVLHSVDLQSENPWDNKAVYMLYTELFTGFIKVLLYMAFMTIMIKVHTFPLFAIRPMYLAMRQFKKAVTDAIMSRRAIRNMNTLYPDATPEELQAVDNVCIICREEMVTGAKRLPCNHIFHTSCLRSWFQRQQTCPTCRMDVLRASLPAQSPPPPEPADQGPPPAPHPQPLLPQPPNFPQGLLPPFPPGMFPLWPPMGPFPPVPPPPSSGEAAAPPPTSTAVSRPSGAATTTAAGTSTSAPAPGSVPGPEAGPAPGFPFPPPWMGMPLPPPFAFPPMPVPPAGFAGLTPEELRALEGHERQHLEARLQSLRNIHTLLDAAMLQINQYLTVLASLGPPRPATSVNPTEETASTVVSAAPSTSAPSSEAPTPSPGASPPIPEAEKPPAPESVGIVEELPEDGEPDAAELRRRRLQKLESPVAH

Experiments:
[1] = target: SEL1L, endogenous mouse (WT liver) (mouse (endogenous in liver)) (UniProt Q9Z2G6); assay: co-IP; IP of endogenous SEL1L or HRD1 (home-made antibody, protein A agarose) from livers of 5-week-old WT, HET and KI mice; 150 mM NaCl, 1% NP-40, 25 mM Tris-HCl pH 7.5
[2] = target: mouse SEL1L (WT)-FLAG (mouse) (UniProt Q9Z2G6); assay: co-IP; anti-FLAG agarose IP from lysates of SEL1L-/- HEK293T cells transfected with SEL1L-FLAG variants, blots for endogenous partners; 150 mM NaCl, 0.2% NP-40, 0.1% Triton X-100, 25 mM Tris-HCl pH 7.5, overnight at 4 C
[3] = target: mouse SEL1L (WT)-FLAG (mouse) (UniProt Q9Z2G6); assay: co-IP; SEL1L-/- HEK293T cells overexpressing both SEL1L-FLAG and HRD1-Myc (Supplementary Fig. 6d); which tag was precipitated not shown
[4] = target: HRD1 (HMG-CoA reductase degradation 1), endogenous human (human (endogenous in HEK293T)) (UniProt Q86TM6); assay: co-IP; IP of endogenous HRD1 in SEL1L-/- HEK293T cells transfected with SEL1L-FLAG WT or S658P, Western blot
[5] = target: HRD1 (HMG-CoA reductase degradation 1), endogenous human (human (endogenous in HEK293T)) (UniProt Q86TM6); assay: co-IP; IP of endogenous HRD1 or SEL1L in WT, HRD1-/- and SEL1L-/- HEK293T cells, Western blot
[6] = target: SEL1L (suppressor of lin-12-like), endogenous human (human (endogenous in HEK293T)) (UniProt Q9UBV2); assay: as above
[7] = target: human HRD1 Y30A-FLAG (human) (UniProt Q86TM6); assay: co-IP; HRD1-FLAG WT and Y30 mutants (Supplementary Fig. 7c); cells and bait not shown
[8] = target: human HRD1 Y30F-FLAG (human) (UniProt Q86TM6); assay: as above
[9] = target: human HRD1 Y30K-FLAG (human) (UniProt Q86TM6); assay: as above
[10] = target: human HRD1 (WT)-FLAG (human) (UniProt Q86TM6); assay: as above
[11] = target: human HRD1 Y30D-FLAG (human) (UniProt Q86TM6); assay: as above

B1: ERLEC1 (ER lectin 1), endogenous human (protein, UniProt Q96DZ1 34-483)
chain: LPQLSDDIPFRVNWPGTEFSLPTTGVLYKEDNYVIMTTAHKEKYKCILPLVTSGDEEEEKDYKGPNPRELLEPLFKQSSCSYRIESYWTYEVCHGKHIRQYHEEKETGQKINIHEYYLGNMLAKNLLFEKEREAEEKEKSNEIPTKNIEGQMTPYYPVGMGNGTPCSLKQNRPRSSTVMYICHPESKHEILSVAEVTTCEYEVVILTPLLCSHPKYRFRASPVNDIFCQSLPGSPFKPLTLRQLEQQEEILRVPFRRNKEEDLQSTKEERFPAIHKSIAIGSQPVLTVGTTHISKLTDDQLIKEFLSGSYCFRGGVGWWKYEFCYGKHVHQYHEDKDSGKTSVVVGTWNQEEHIEWAKKNTARAYHLQDDGTQTVRMVSHFYGNGDICDITDKPRQVTVKLKCKESDSPHAVTVYMLEPHSCQYILGVESPVICKILDTADENGLLSLPN
binding [2]: binds | binding [3]: binds

B2: ERLEC1, endogenous mouse (liver) (protein, UniProt Q8VEH8 34-483)
chain: LPQLSDDIPFRVNWPGTEFSLPTTGVLYKEDNYIIMTTAHKEKYKCILPLVTSGDEEEEKDYKGPNPRELLEPLFKQSSCSYRIESYWTYEVCHGKHIRQYHEEKETGQKVNIHEYYLGNMLAKNLLYEKEREAKENEKSNEIPTKNIEGQMTPYYPVGMGNGTPCSLKQNRPRSSTVMYICHPESKHEILSVAEVTTCEYEVVILTPLLCSHPKYKFRASPVNDIFCQSLPGSPFKPLTLRQLEQQEEILRVPFRRNKEEDLPSAKEERFPAIHKPIAVGSQPVLTVGTTHISKLTDDQLIKEFLSGSYCFHGGVGWWKYEFCYGKHVHQYHEDKDNGKTSVVVGTWNQEEHVEWAKKNTARAYHLQDDGTQTVRMVSHFYGNGDICDITDKPRQVTVKLKCKESDSPHAVTVYMLEPHSCQYILGVESPVICKILDTADENGLLSLPN
binding [1]: binds

B4: DERL2, endogenous human (protein, UniProt Q9GZP9 1-239)
chain: MAYQSLRLEYLQIPPVSRAYTTACVLTTAAVQLELITPFQLYFNPELIFKHFQIWRLITNFLFFGPVGFNFLFNMIFLYRYCRMLEEGSFRGRTADFVFMFLFGGFLMTLFGLFVSLVFLGQAFTIMLVYVWSRRNPYVRMNFFGLLNFQAPFLPWVLMGFSLLLGNSIIVDLLGIAVGHIYFFLEDVFPNQPGGIRILKTPSILKAIFDTPDEDPNYNPLPEERPGGFAWGEGQRLGG
binding [2]: binds | binding [6]: binds

B5: OS9 (Osteosarcoma amplified 9), endogenous human (protein, UniProt Q13438 26-667)
chain: GGVGSLNLEELSEMRYGIEILPLPVMGGQSQSSDVVIVSSKYKQRYECRLPAGAIHFQREREEETPAYQGPGIPELLSPMRDAPCLLKTKDWWTYEFCYGRHIQQYHMEDSEIKGEVLYLGYYQSAFDWDDETAKASKQHRLKRYHSQTYGNGSKCDLNGRPREAEVRFLCDEGAGISGDYIDRVDEPLSCSYVLTIRTPRLCPHPLLRPPPSAAPQAILCHPSLQPEEYMAYVQRQADSKQYGDKIIEELQDLGPQVWSETKSGVAPQKMAGASPTKDDSKDSDFWKMLNEPEDQAPGGEEVPAEEQDPSPEAADSASGAPNDFQNNVQVKVIRSPADLIRFIEELKGGTKKGKPNIGQEQPVDDAAEVPQREPEKERGDPERQREMEEEEDEDEDEDEDEDERQLLGEFEKELEGILLPSDRDRLRSEVKAGMERELENIIQETEKELDPDGLKKESERDRAMLALTSTLNKLIKRLEEKQSPELVKKHKKKRVVPKKPPPSPQPTEEDPEHRVRVRVTKLRLGGPNQDLTVLEMKRENPQLKQIEGLVKELLEREGLTAAGKIEIKIVRPWAEGTEEGARWLTDEDTRNLKEIFFNILVPGAEEAQKERQRQKELESNYRRVWGSPGGEGTGDLDEFDF
binding [2]: binds | binding [6]: binds | binding [3]: binds

B6: FAM8A1, endogenous human (protein, UniProt Q9UBU6 1-413)
chain: MAEGPEEARGHPPGQDDGGGDHEPVPSLRGPPTTAVPCPRDDPQAEPQAPGRPTAPGLAAAAAADKLEPPRELRKRGEAASGSGAELQEQAGCEAPEAAAPRERPARLSAREYSRQVHEWLWQSYCGYLTWHSGLAAFPAYCSPQPSPQSFPSGGAAVPQAAAPPPPQLGYYNPFYFLSPGAAGPDPRTAAGISTPAPVAGLGPRAPHVQASVRATPVTRVGSAAPSRSPSETGRQAGREYVIPSLAHRFMAEMVDFFILFFIKATIVLSIMHLSGIKDISKFAMHYIIEEIDEDTSMEDLQKMMVVALIYRLLVCFYEIICIWGAGGATPGKFLLGLRVVTCDTSVLIAPSRVLVIPSSNVSITTSTIRALIKNFSIASFFPAFITLLFFQHNRTAYDIVAGTIVVKRNGVR
binding [4]: binds | binding [5]: binds | binding [7]: binds | binding [8]: binds | binding [9]: binds | binding [10]: binds | binding [11]: binds

Further lines, results first:

binding [1]: binds
Molecule: HRD1, endogenous mouse (liver) (from UniProt Q9DBY1 1-612) (enzyme)

binding [4]: binds | binding [5]: binds
B3: HERP1, endogenous human (protein, UniProt Q15011 1-391)
chain: MESETEPEPVTLLVKSPNQRHRDLELSGDRGWSVGHLKAHLSRVYPERPRPEDQRLIYSGKLLLDHQCLRDLLPKQEKRHVLHLVCNVKSPSKMPEINAKVAESTEEPAGSNRGQYPEDSSSDGLRQREVLRNLSSPGWENISRPEAAQQAFQGLGPGFSGYTPYGWLQLSWFQQIYARQYYMQYLAATAASGAFVPPPSAQEIPVVSAPAPAPIHNQFPAENQPANQNAAPQVVVNPGANQNLRMNAQGGPIVEEDDEINRDWLDWTYSAATFSVFLSILYFYSSLSRFLMVMGATVVMYLHHVGWFPFRPRPVQNFPNDGPPPDVVNQDPNNNLQEGTDPETEDPNHLPPDRDVLDGEQTSPSFMSTAWLVFKTFFASLLPEGPPAIAN

binding [2]: binds | binding [6]: binds
B7: UBE2J1, endogenous human (enzyme, UniProt Q9Y385 1-318)
chain: METRYNLKSPAVKRLMKEAAELKDPTDHYHAQPLEDNLFEWHFTVRGPPDSDFDGGVYHGRIVLPPEYPMKPPSIILLTANGRFEVGKKICLSISGHHPETWQPSWSIRTALLAIIGFMPTKGEGAIGSLDYTPEERRALAKKSQDFCCEGCGSAMKDVLLPLKSGSDSSQADQEAKELARQISFKAEVNSSGKTISESDLNHSFSLTDLQDDIPTTFQGATASTSYGLQNSSAASFHQPTQPVAKNTSMSPRQRRAQQQSQRRLSTSPDVIQGHQPRDNHTDHGGSAVLIVILTLALAALIFRRIYLANEYIFDFEL
